PubChem BioAssay AID1259308 – NCATS | 2017

Test: 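Knock-downs that increase output of a recombinant reporter protein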 (primary screen)
System: human HEK293 embryonic kidney cells stably expressing firefly luciferase (HEK-CMV-Luc2-Hygro)
Reagents: single siRNA against human genes, 0.8 pmol siRNA per well
Duration: 72 h
Read-out: 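Reporter luminescence and viable-cell signal on separate replicate plates, given as percent of non-targeting control and median/MAD z-scores, plus per-cell luciferase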
Direction: total luciferase, z-score and total luciferase, % of control: higher = more reporter protein produced
Hit rule: 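An siRNA counts as active if its total luciferase robust z-score exceeds 3; genes with two or more such siRNAs out of three were retested with fresh siRNAs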
Calls: active = raised luciferase; inactive = no rise
Shown is a random part of about 59,000 reagents. About 1,510 of them (2.6%) count as active. 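Calls use total luciferase alone and ignore viability, so some active siRNAs may act by altering cell number.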 The numbers tell different reagents against one gene apart. Further read-outs or replicates are left out here. No sequences are given here.

For MARCHF8 (membrane associated ring-CH-type finger 8) #1, the values are total luciferase, z-score -1.2; total luciferase, % of control 57.9; inactive.
MARCHF8 (membrane associated ring-CH-type finger 8) #2 scored total luciferase, z-score -0.288; total luciferase, % of control 76.2; inactive.
Knock-down of MARCHF8 (membrane associated ring-CH-type finger 8) #3 gave: total luciferase, z-score 0.02; total luciferase, % of control 82.3; inactive.
For SMARCD1 (SWI/SNF related BAF chromatin remodeling complex subunit D1) #1, the entry reads total luciferase, z-score -0.218; total luciferase, % of control 77.5; inactive.
Against SMARCD1 (SWI/SNF related BAF chromatin remodeling complex subunit D1) #2, the entry reads total luciferase, z-score -0.655; total luciferase, % of control 68.9; inactive.
Against SMARCD1 (SWI/SNF related BAF chromatin remodeling complex subunit D1) #3, the entry reads total luciferase, z-score -0.668; total luciferase, % of control 68.6; inactive.
After knock-down of ATL1 (atlastin GTPase 1) #1, the screen gave total luciferase, z-score -0.686; total luciferase, % of control 68.2; inactive.
For ATL1 (atlastin GTPase 1) #2 the deposit lists total luciferase, z-score -0.824; total luciferase, % of control 65.5; inactive.
Silencing of ATL1 (atlastin GTPase 1) #3 gave: total luciferase, z-score -0.128; total luciferase, % of control 79.3; inactive.
After knock-down of FHDC1-AS1 (FHDC1 antisense RNA 1) #1 the results were total luciferase, z-score 0.471; total luciferase, % of control 91.3; inactive.
Knock-down of FHDC1-AS1 (FHDC1 antisense RNA 1) #2 resulted in: total luciferase, z-score -0.716; total luciferase, % of control 67.6; inactive.
Knock-down of FHDC1-AS1 (FHDC1 antisense RNA 1) #3 resulted in: total luciferase, z-score -0.692; total luciferase, % of control 68.1; inactive.

Reprinted from the entries so far for reference:
MARCHF8 (membrane associated ring-CH-type finger 8) #2 | total luciferase, z-score = -0.288; total luciferase, % of control = 76.2; Call = inactive
MARCHF8 (membrane associated ring-CH-type finger 8) #3 | total luciferase, z-score = 0.02; total luciferase, % of control = 82.3; Call = inactive
